Values of other authors, collected in patent US5874464A, “Conformationally constrained diacylglycerol analogues” (The United States of America as represented by the …, priority 1995, dated 1999).

System: tumor graft proliferation
Conditions: mouse model; cited from earlier work

## CN[C@@H]1C[C@H]2O[C@@](C)([C@@H]1OC)n1c3ccccc3c3c4c(c5c6ccccc6n2c5c31)C(=O)NC4 [Staurosporine]
  inhibition of tumor graft proliferation: potent inhibitor of tumor graft proliferation
